Measured data: PubChem BioAssay AID686937 (Drosophila RNAi Screening Center, 2013)
In all, the deposit lists about 23,000 reagents; shown is a random part of those with a known target gene and a result. 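Reduced-secretion tags in replicate 1 do not always agree with the z-scores; no criterion for assigning the tags was given.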 Names joined by + are all predicted targets of the reagent. Not all columns of the deposit are shown. Not stated in the record: the amount of reagent.

- Screen: 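Genes whose loss weakens secretory pathway function in fly cells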 (primary screen)
- Cell system: Drosophila S2 cells expressing secreted horseradish peroxidase
- Reagents: long dsRNA against Drosophila genes
- Timing: about 5.5 days (5 days dsRNA, then 12 h reporter induction)
- Conditions: reporter expression induced after 5 days of dsRNA, read 12 h later; inducer not stated
- Detection: 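After 5 days of dsRNA and 12 h of reporter induction, medium peroxidase read by chemiluminescence and scored as per-plate z-score; higher values mean more reporter released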
- Scale: z-score: higher = more reporter secreted into medium

Gene,DRSC id,"z-score, replicate 1","z-score, replicate 2","z-score, replicate 3","z-score, replicate 4"
"Gos28 (Golgi SNARE, 28 kDa)",DRSC16292,0.17,0.21,,
"Gos28 (Golgi SNARE, 28 kDa)",DRSC22859,1.33,0.89,,
aph-1 (anterior pharynx defective 1),DRSC00547,0.18,0.27,,
CG3815,DRSC18324,0.47,0.59,,
betaTub85D (beta-Tubulin at 85D),DRSC16910,-2.15,-1.15,,
PlexA (Plexin A),DRSC17220,0.47,0.35,,
Snx6 (Sorting nexin 6),DRSC03081,0.36,0.11,,
Mst84Db (Male-specific RNA 84Db),DRSC12542,0.34,0.25,,
Mst84Db (Male-specific RNA 84Db),DRSC12598,0.18,-0.16,,
ssp7 (short spindle 7),DRSC18878,0.31,0.43,,
beat-Ib (beaten path Ib),DRSC03490,0.45,0.25,,
Vha26 (Vacuolar H[+]-ATPase 26kD subunit),DRSC12371,-0.13,-0.36,,
wap (wings apart),DRSC20626,0.24,0.15,,
CG15471,DRSC18054,0.29,-6.21,,
CG4022,DRSC10395,0.41,0.47,,
wisp (wispy),DRSC19703,0.39,0.39,,
esc (extra sexcombs),DRSC03529,0.21,0.32,,
CG13255,DRSC11702,0.3,0.39,,
CG18493,DRSC15334,0.28,0.35,,
SMC1 (Structural maintenance of chromosomes 1),DRSC16846,0.36,0.22,,
CG9986,DRSC16586,0.33,0.52,,
CG33502 + CG32857 + CG32500,DRSC20817,-0.43,0.19,,
CG33502 + CG32857 + CG32500,DRSC21038,0.12,0.52,,
Qsox1 (Quiescin sulfhydryl oxidase 1),DRSC06878,-0.13,0.15,1.1,1.2
CG15404,DRSC00418,0.51,0.42,,
CG16734,DRSC15143,-0.31,-0.03,,
Jhbp12 (Juvenile hormone binding protein 12),DRSC14621,0.11,0.23,,
snz (snazarus),DRSC17969,0.21,0.47,,
Sgsh (N-sulfoglucosamine sulfohydrolase),DRSC14771,0.26,0.12,,
CG17597,DRSC02630,0.13,0.34,,
CG5199,DRSC11770,0.52,0.56,,
Fign (Fidgetin),DRSC00592,0.58,0.41,,
Blimp-1,DRSC10496,0.06,0.37,,
tau,DRSC14569,-0.48,-1.02,,
mRpL38 (mitochondrial ribosomal protein L38),DRSC19734,0.09,0.06,,
CG12730,DRSC17885,0.42,-0.16,,
sac (sterile affecting ciliogenesis),DRSC12237,0.24,0.39,,
CG42685,DRSC01971,0.72,-0.02,0.59,0.08
p130CAS,DRSC07862,0.94,0.4,,
p130CAS,DRSC08257,-3.82,-2.41,,
CG15641,DRSC19677,0.37,0.38,,
CG15225,DRSC04232,-0.05,0.4,,
CG30496,DRSC06805,0.48,0.49,,
pps (protein partner of snf),DRSC16057,0.28,0.09,,
Pgam5-2 (Phosphoglycerate mutase 5-2),DRSC04278,0.05,-0.01,,
Lip2 (Lipase 2),DRSC02577,-0.12,0.16,,
Lip2 (Lipase 2),DRSC02578,-0.37,0.22,,
CG11029,DRSC02119,-0.61,-0.48,,
CG11710,DRSC20485,0.4,0.19,,
RpL29 (Ribosomal protein L29),DRSC04650,0.09,0.26,,
CG15483,DRSC02493,0.09,0.27,,
dnr1 (defense repressor 1),DRSC03948,-2.18,0.33,,
dnr1 (defense repressor 1),DRSC04122,0.73,0.48,,
CG11257,DRSC06068,0.22,0.12,,
atilla,DRSC02971,0.17,0.09,,
CG3663,DRSC04402,0.11,0.31,,
CG42816,DRSC11230,0.19,0.29,,
"Nsun2 (NOP2-Sun domain family, member 2)",DRSC18662,0.35,0.43,-0.21,-1.14
Cpr64Ad (Cuticular protein 64Ad),DRSC08284,0.37,0.22,,
CG3748,DRSC02716,0.39,0.53,,
Rpt6 (Regulatory particle triple-A ATPase 6),DRSC20571,0.17,0.48,,
CG7420,DRSC00704,0.34,0.35,,
Tpst (Tyrosylprotein sulfotransferase),DRSC18989,0.68,-0.48,,
Tpst (Tyrosylprotein sulfotransferase),DRSC19696,0.28,0.71,,
Tpst (Tyrosylprotein sulfotransferase),DRSC19723,-0.03,0.04,,
Tpst (Tyrosylprotein sulfotransferase),DRSC19724,-1.8,-1.43,,
Tpst (Tyrosylprotein sulfotransferase),DRSC22621,0.87,0.78,,
CG31861,DRSC21665,0.4,0.04,,
CG7990,DRSC19296,0.62,1.38,,
CG7990,DRSC20069,0.16,0.14,,
Rab3-GEF (Rab3 GDP-GTP exchange factor),DRSC19954,0.27,0.41,,
Rab3-GEF (Rab3 GDP-GTP exchange factor),DRSC19955,0.39,0.52,,
Rab3-GEF (Rab3 GDP-GTP exchange factor),DRSC19956,0.37,-0.45,,
CG9795,DRSC12336,0.67,0.57,,
Samtor (S-adenosylmethionine sensor upstream of TORC1),DRSC04390,-0.05,0.04,,
Ip6k (Inositol hexakisphosphate kinase),DRSC04054,-0.18,0.33,,
CG8939,DRSC20127,0.31,0.14,,
CG10864,DRSC14273,0.29,0.3,,
CG30154,DRSC05889,0.11,0.12,,
eIF4E1 (eukaryotic translation initiation factor 4E1),DRSC11342,0.06,-1.04,,
CG4338,DRSC15564,0.25,0.23,,
daw (dawdle),DRSC00479,0.27,0.46,,
